Experimental data: the supplement of paper PMC10849652
The list shows a part of the results.

The chains behind the UniProt entries cited, without tags or fusion partners. Where a name states a change or a piece, a line headed by the entry shows the natural chain unless it says otherwise.
UniProt P21359: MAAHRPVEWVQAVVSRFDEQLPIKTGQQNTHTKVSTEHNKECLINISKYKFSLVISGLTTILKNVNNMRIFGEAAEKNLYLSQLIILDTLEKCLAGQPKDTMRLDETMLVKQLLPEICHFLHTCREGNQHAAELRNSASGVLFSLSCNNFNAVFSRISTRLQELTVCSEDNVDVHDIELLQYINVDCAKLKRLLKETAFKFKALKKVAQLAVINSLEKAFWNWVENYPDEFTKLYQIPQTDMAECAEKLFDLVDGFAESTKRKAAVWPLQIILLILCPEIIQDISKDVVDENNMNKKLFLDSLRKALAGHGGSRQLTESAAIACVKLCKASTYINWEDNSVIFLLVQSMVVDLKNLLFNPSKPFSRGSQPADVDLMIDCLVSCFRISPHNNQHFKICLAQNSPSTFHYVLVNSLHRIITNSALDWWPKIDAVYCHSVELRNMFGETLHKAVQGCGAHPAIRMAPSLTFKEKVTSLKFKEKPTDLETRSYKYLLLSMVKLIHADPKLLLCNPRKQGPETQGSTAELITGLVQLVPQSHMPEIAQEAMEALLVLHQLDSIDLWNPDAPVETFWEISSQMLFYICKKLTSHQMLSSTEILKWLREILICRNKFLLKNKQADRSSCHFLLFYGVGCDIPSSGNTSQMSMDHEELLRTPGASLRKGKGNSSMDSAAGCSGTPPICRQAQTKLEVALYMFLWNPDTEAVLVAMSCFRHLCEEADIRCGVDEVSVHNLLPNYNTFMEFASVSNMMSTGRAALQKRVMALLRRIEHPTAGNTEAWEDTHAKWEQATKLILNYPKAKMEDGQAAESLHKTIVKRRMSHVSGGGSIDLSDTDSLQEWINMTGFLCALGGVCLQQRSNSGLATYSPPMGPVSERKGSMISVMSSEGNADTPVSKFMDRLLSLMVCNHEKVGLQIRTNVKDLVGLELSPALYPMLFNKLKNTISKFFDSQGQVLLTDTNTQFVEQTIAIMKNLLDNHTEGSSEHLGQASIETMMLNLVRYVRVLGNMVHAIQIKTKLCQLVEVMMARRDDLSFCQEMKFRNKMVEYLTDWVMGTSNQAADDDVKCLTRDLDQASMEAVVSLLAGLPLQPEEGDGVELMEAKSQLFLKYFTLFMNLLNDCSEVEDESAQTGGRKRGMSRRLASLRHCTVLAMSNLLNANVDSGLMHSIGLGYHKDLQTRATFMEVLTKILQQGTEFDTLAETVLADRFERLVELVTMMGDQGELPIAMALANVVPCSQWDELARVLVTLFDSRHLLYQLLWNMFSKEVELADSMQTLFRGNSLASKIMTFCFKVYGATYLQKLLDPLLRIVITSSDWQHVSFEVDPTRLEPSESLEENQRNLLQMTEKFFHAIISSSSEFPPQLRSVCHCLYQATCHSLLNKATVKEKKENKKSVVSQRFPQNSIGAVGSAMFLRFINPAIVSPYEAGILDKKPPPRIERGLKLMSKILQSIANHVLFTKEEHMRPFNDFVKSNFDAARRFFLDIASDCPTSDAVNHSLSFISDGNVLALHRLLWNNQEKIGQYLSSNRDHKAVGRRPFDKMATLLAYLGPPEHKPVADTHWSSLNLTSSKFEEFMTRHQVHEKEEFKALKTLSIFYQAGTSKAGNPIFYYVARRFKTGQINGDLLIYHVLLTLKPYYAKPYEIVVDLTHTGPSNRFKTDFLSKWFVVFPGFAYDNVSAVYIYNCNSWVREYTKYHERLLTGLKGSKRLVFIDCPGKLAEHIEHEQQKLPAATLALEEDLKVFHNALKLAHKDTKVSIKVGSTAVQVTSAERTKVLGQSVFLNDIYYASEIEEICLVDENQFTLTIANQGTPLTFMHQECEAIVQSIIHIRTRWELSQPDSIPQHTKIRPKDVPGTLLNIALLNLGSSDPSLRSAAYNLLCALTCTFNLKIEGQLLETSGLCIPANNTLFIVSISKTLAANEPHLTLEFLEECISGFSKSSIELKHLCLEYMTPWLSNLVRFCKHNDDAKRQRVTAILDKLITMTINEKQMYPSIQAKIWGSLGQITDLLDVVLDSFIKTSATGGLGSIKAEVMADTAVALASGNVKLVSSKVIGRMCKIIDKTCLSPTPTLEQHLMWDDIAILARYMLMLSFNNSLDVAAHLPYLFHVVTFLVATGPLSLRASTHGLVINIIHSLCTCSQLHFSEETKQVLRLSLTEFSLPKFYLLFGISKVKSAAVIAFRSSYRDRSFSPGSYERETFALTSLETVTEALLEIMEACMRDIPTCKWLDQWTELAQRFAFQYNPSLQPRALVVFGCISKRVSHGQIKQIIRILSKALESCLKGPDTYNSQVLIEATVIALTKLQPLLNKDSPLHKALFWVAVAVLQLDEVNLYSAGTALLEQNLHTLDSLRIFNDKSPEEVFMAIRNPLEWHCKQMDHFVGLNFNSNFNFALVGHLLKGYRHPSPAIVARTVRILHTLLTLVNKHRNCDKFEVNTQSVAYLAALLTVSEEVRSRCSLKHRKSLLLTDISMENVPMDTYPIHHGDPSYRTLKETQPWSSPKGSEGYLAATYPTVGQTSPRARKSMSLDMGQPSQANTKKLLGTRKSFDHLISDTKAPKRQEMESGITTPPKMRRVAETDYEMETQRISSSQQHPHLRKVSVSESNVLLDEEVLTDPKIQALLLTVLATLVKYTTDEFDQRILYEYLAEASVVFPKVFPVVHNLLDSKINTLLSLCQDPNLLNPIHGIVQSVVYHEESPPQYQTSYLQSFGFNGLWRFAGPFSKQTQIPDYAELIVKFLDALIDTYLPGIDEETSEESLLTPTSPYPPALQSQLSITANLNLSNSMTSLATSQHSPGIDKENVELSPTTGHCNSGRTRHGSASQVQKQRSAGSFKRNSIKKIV
UniProt Q9HBL8: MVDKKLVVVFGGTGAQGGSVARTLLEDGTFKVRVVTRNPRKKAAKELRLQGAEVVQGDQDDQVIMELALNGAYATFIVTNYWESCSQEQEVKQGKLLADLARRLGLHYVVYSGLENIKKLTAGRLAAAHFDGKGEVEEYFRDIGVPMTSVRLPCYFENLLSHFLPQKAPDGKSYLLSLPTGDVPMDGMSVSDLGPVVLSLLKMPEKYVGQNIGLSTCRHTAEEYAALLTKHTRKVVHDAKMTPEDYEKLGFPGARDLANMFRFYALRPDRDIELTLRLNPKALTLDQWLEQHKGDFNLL
UniProt Q9BXD5: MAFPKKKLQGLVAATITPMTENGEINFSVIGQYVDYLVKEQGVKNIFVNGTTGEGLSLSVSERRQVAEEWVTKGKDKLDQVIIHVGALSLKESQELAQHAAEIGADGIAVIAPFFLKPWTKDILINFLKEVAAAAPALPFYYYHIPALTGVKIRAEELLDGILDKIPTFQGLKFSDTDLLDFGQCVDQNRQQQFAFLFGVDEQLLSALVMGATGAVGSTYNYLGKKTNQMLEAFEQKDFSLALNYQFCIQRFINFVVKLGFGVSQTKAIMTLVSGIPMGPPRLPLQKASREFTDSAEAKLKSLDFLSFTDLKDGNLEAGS
UniProt P35240: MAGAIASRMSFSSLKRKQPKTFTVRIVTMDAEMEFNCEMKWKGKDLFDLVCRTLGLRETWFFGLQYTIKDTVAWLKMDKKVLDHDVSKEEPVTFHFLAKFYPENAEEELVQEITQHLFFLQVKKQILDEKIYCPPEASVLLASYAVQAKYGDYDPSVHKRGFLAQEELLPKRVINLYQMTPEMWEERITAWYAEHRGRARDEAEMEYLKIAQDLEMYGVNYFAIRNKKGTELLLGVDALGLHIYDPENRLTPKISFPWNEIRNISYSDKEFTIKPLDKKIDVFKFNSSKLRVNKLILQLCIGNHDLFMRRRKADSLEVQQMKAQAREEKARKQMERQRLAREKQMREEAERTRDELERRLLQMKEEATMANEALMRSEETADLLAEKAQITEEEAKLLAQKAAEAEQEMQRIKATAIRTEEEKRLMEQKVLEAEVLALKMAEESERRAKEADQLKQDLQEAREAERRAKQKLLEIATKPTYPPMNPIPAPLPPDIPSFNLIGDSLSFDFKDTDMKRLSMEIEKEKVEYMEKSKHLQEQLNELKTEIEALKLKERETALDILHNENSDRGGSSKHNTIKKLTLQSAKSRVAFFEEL
UniProt Q9H9Q4: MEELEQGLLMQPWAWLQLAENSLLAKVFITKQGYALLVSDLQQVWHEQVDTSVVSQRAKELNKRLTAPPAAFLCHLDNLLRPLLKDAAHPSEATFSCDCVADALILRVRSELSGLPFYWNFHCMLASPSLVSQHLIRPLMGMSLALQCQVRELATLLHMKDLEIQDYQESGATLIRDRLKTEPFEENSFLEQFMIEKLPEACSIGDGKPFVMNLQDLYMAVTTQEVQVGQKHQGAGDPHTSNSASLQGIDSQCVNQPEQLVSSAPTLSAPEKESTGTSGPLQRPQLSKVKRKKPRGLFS
UniProt Q9UMS0: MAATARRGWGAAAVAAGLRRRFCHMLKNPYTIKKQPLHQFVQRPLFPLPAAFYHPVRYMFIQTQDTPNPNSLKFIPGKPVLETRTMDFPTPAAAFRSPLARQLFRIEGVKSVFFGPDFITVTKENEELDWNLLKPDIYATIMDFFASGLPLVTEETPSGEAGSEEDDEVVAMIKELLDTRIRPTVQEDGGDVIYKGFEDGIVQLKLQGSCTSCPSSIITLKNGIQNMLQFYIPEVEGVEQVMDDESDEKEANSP
UniProt Q6ZNB6: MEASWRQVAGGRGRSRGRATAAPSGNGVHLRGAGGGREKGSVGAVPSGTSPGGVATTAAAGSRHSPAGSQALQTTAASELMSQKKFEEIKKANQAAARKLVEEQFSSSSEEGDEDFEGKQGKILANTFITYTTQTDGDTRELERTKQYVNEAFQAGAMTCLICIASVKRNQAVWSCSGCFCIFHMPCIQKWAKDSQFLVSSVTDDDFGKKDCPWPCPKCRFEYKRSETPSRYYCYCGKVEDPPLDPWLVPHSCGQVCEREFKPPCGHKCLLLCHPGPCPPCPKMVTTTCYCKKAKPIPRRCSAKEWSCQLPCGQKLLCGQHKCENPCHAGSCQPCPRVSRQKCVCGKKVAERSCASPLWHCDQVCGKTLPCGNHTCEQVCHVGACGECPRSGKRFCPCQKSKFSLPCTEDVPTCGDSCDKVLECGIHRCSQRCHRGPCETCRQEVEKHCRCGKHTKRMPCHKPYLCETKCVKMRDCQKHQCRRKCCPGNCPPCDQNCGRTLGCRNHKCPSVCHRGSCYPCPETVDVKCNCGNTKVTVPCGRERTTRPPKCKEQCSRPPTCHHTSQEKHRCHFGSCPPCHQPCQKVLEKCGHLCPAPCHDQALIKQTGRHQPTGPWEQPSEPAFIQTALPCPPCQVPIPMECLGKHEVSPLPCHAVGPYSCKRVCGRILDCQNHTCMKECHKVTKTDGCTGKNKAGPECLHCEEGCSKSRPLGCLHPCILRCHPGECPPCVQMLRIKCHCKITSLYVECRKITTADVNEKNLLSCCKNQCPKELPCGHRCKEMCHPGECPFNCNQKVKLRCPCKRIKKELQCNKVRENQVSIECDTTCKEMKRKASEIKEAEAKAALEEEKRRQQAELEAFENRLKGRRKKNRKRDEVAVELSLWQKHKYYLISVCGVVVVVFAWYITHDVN
UniProt Q9NX24: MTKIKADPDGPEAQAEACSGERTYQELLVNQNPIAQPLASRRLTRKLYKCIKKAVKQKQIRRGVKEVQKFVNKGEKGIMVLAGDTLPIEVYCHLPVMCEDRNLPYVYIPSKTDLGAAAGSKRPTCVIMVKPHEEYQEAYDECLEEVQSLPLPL
UniProt Q13469: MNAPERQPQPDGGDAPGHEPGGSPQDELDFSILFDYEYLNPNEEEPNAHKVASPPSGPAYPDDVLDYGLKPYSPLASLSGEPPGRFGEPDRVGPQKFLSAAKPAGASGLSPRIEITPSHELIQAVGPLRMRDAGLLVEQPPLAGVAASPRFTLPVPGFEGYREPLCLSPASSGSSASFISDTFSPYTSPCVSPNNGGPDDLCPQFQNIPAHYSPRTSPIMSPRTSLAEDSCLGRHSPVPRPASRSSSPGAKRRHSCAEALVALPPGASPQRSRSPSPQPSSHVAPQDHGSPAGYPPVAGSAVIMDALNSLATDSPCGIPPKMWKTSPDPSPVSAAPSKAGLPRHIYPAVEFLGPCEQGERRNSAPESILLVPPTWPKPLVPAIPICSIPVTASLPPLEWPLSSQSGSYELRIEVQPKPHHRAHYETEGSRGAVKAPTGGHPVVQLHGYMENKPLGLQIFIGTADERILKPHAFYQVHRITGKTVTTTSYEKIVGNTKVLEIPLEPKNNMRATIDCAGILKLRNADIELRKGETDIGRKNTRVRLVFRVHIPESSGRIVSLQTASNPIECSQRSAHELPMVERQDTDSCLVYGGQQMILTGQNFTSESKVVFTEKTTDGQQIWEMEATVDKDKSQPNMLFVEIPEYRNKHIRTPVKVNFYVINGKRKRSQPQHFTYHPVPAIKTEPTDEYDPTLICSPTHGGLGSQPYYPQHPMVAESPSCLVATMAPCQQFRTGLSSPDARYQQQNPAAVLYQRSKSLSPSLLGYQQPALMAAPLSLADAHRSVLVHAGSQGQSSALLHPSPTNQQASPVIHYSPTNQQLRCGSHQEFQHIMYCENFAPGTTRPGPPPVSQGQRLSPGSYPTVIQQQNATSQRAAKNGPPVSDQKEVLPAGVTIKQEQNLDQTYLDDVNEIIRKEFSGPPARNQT

Legend:
Assay in all cases: log2 fold change, soluble protein after heating vs DMSO (PISA); higher = thermal stabilisation; K562 cells, 10 uM, 30 min; active = over 0.2 and 3.5 SD of the protein, either way, in both replicates (recomputed)
erlotinib = compound: C#Cc1cccc(Nc2ncnc3cc(OCCOC)c(OCCOC)cc23)c1 [erlotinib]
Outline: (§1)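 Thermal stability values are relative to control samples and come from duplicates. They are expressed as log2 fold changes. For measurement, K562 cells (2×10^6 cells/mL) received 10 μM compound for 30 min, and aliquots were heated for 3 min over 48°C-58°C, pooled, and extracted at 4°C in PBS with 0.5% NP-40. Soluble protein, the supernatant after 21,000xg for 90 min, was quantified by TMTpro 16plex LC-MS/MS with equalised channel sums.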

[1] = compound: C/C(=N\NC(=O)C1=CC(=CC=C1)S(=O)(=O)N2CCOCC2)/C3=C(C=CC(=C3)Cl)O
Outline: as §1

[2] = compound: C1=CC(=C(C=C1Cl)C2=NC3=NC=CN=C3C(=N2)NC4=CC=NC=C4)F
Outline: as §1

[3] = compound: C1=CC(=CC=C1C2=NC3=C(N2)C=C(C=C3)C(=O)N)OC4=CC=C(C=C4)Cl
Outline: as §1

[4] = compound: C1=CC2=C(C=CC(=C2)/C=C\3/C(=O)NC(=NCC4=CC=CS4)S3)N=C1
Outline: as §1

[5] = compound: C1=CC2=NC=CN=C2C=C1/C=C/3\C(=O)NC(=O)S3
Outline: as §1

[6] = compound: C1=CC=C(C=C1)C2=NC(=C(N2)C3=CC=NC=C3)C4=CC(=C(C=C4)Cl)O
Outline: as §1

[7] = compound: C1=CC=C2C(=C1)C3=NNC4=CC=CC(=C43)C2=O
Outline: as §1

[8] = compound: C1CCN(C1)C(=O)NC2=CC=CC(=C2)NC3=NC=C(C(=N3)NCCC4=CN=CN4)Br
Outline: as §1

[9] = compound: C1CN(CCC1(CC2=CC=C(C=C2)Cl)N)C3=NC=NC4=C3C=CN4
Outline: as §1

Target | log2 fold change (erlotinib) | log2 fold change [1] | log2 fold change [2] | log2 fold change [3] | log2 fold change [4] | log2 fold change [5] | log2 fold change [6] | log2 fold change [7] | log2 fold change [8] | log2 fold change [9]
NFATC3 (UniProt Q12968) | inactive: 0.121 | inactive: 0.197 | inactive: 0.024 | inactive: 0 | inactive: 0.039 | inactive: -0.013 | inactive: -0.019 | inactive: -0.101 | inactive: -0.01 | inactive: -0.027
NMI (UniProt Q13287) | inactive: 0.023 | inactive: 0.015 | inactive: 0.081 | inactive: 0.013 | inactive: 0.056 | inactive: -0.007 | inactive: -0.011 | inactive: 0 | inactive: 0.023 | inactive: 0.05
NMU (UniProt P48645) | inactive: -0.003 | inactive: 0.072 | inactive: -0.02 | inactive: 0.063 | inactive: -0.123 | inactive: 0.094 | inactive: -0.129 | inactive: -0.018 | inactive: 0.025 | inactive: 0.133
NOP53 (UniProt Q9NZM5) | inactive: -0.201 | inactive: -0.272 | inactive: -0.231 | inactive: 0.005 | inactive: -0.298 | inactive: 0.036 | inactive: -0.147 | inactive: -0.121 | inactive: 0.058 | inactive: -0.387
NEMP1 (UniProt O14524) | inactive: -0.003 | inactive: -0.011 | inactive: -0.027 | inactive: 0.023 | inactive: 0.049 | inactive: 0.016 | inactive: -0.056 | inactive: -0.162 | inactive: 0.068 | inactive: 0.048
NF1 (UniProt P21359) | inactive: 0.015 | inactive: 0.031 | inactive: -0.033 | inactive: 0.03 | inactive: 0.062 | inactive: 0.11 | inactive: 0.004 | inactive: -0.058 | inactive: -0.08 | inactive: -0.027
NMRAL1 (UniProt Q9HBL8) | inactive: 0.239 | inactive: -0.118 | active: 0.841 | inactive: -0.054 | inactive: 0.098 | inactive: 0.141 | inactive: 0.029 | inactive: 0.273 | inactive: -0.055 | inactive: 0.037
NOP2 isoform 4 (UniProt P46087) | inactive: -0.17 | inactive: -0.261 | inactive: -0.349 | inactive: -0.064 | inactive: -0.045 | inactive: 0.272 | inactive: -0.255 | inactive: 0.078 | inactive: 0.023 | inactive: 0.006
NME2 isoform 2 (UniProt P22392) | inactive: 0.016 | inactive: -0.011 | inactive: 0.042 | inactive: 0.002 | inactive: 0.054 | inactive: 0 | inactive: -0.022 | inactive: -0.023 | inactive: 0.025 | inactive: 0.055
NIT2 (UniProt Q9NQR4) | inactive: 0.012 | inactive: 0.003 | inactive: 0.069 | inactive: 0.004 | inactive: 0.041 | inactive: 0.001 | inactive: -0.065 | inactive: -0.004 | inactive: 0.009 | inactive: 0.043
NELFA (UniProt Q9H3P2) | inactive: 0.21 | inactive: 0.231 | inactive: 0.059 | inactive: -0.061 | inactive: 0.073 | inactive: 0.111 | inactive: 0.048 | inactive: 0 | inactive: -0.323 | inactive: -0.028
NPL (UniProt Q9BXD5) | inactive: -0.001 | inactive: 0.059 | inactive: 0.018 | inactive: 0.05 | inactive: 0.167 | inactive: -0.004 | inactive: -0.029 | inactive: -0.144 | inactive: 0.069 | inactive: 0.119
NPC1 (UniProt O15118) | inactive: 0.027 | inactive: -0.033 | inactive: -0.004 | inactive: 0.025 | inactive: -0.01 | inactive: 0.028 | inactive: 0.011 | inactive: -0.027 | inactive: 0.058 | inactive: 0.069
NF2 (UniProt P35240) | inactive: -0.001 | inactive: -0.021 | inactive: -0.022 | inactive: 0.05 | inactive: 0.088 | inactive: 0.045 | inactive: -0.064 | inactive: -0.028 | inactive: -0.072 | inactive: 0.027
NHEJ1 (UniProt Q9H9Q4) | inactive: -0.035 | inactive: 0.094 | inactive: 0.103 | inactive: 0.016 | inactive: -0.045 | inactive: 0.055 | inactive: 0 | inactive: 0.081 | inactive: -0.082 | inactive: 0.15
NFU1 (UniProt Q9UMS0) | inactive: 0.011 | inactive: -0.028 | inactive: 0.036 | inactive: 0.028 | inactive: -0.016 | inactive: 0.002 | inactive: 0.003 | inactive: -0.002 | inactive: -0.019 | inactive: -0.074
NFE2 (UniProt Q16621) | inactive: 0.009 | inactive: 0.005 | inactive: -0.025 | inactive: -0.001 | inactive: -0.002 | inactive: 0.158 | inactive: -0.012 | inactive: -0.009 | inactive: -0.02 | inactive: -0.019
NFXL1 (UniProt Q6ZNB6) | inactive: -0.043 | inactive: 0.01 | inactive: 0.029 | inactive: 0.015 | inactive: -0.043 | inactive: -0.019 | inactive: -0.028 | inactive: -0.193 | inactive: -0.08 | inactive: 0.047
NME7 (UniProt Q9Y5B8) | inactive: 0.166 | inactive: 0.058 | inactive: -0.052 | inactive: -0.247 | inactive: 0.127 | inactive: -0.023 | inactive: 0.06 | inactive: 0.006 | inactive: -0.039 | inactive: -0.248
NR2C2AP isoform 2 (UniProt Q86WQ0) | inactive: 0.032 | inactive: 0.028 | inactive: -0.013 | inactive: 0.048 | inactive: 0.041 | inactive: 0.026 | inactive: -0.08 | inactive: -0.134 | inactive: -0.089 | inactive: -0.013
NELFE isoform 3 (UniProt P18615) | inactive: -0.005 | inactive: -0.024 | inactive: -0.044 | inactive: -0.013 | inactive: -0.021 | inactive: 0.027 | inactive: 0.004 | inactive: 0 | inactive: -0.013 | inactive: 0.011
NMD3 (UniProt Q96D46) | inactive: 0.025 | inactive: 0.011 | inactive: 0.052 | inactive: 0.023 | inactive: 0.009 | inactive: -0.02 | inactive: 0.05 | inactive: 0.013 | inactive: 0.064 | active: -0.281
NIP7 (UniProt Q9Y221) | inactive: -0.028 | inactive: -0.122 | inactive: -0.374 | inactive: -0.039 | inactive: -0.181 | inactive: 0.257 | inactive: -0.048 | inactive: 0.035 | inactive: 0.037 | inactive: 0.038
NHP2 (UniProt Q9NX24) | inactive: -0.024 | inactive: -0.151 | inactive: -0.179 | inactive: 0.011 | inactive: -0.107 | inactive: 0.032 | inactive: -0.08 | inactive: -0.02 | inactive: -0.019 | inactive: -0.075
NIPSNAP3A (UniProt Q9UFN0) | inactive: 0.004 | inactive: -0.002 | inactive: 0.023 | inactive: 0.015 | inactive: -0.005 | inactive: 0.029 | inactive: -0.043 | inactive: 0.031 | inactive: 0.003 | inactive: 0.033
NIF3L1 (UniProt Q9GZT8) | inactive: -0.011 | inactive: -0.053 | inactive: -0.057 | inactive: 0.008 | inactive: 0.032 | inactive: -0.108 | inactive: -0.025 | inactive: -0.03 | inactive: 0.011 | inactive: 0.022
NFYC (UniProt Q13952) | inactive: 0.014 | inactive: 0.004 | inactive: 0.016 | inactive: -0.006 | inactive: 0.059 | inactive: 0.007 | inactive: 0.007 | inactive: 0.01 | inactive: -0.034 | inactive: -0.042
NFATC2 (UniProt Q13469) | inactive: -0.049 | inactive: 0.147 | inactive: -0.002 | inactive: 0.012 | inactive: 0.04 | inactive: -0.132 | inactive: 0.053 | inactive: -0.109 | inactive: -0.201 | inactive: 0.007
NQO2 (UniProt P16083) | inactive: 0.016 | inactive: -0.004 | inactive: -0.014 | inactive: 0.038 | inactive: -0.025 | inactive: -0.017 | inactive: -0.035 | inactive: -0.023 | inactive: 0.023 | inactive: 0.075
NRBF2 (UniProt Q96F24) | inactive: -0.023 | inactive: 0 | inactive: 0.048 | inactive: -0.015 | inactive: 0.095 | inactive: 0.081 | inactive: -0.046 | inactive: -0.028 | inactive: 0.026 | inactive: 0.034
